# Source: US11152578B2, “Sulfonium salts of DNTT and related compounds as soluble photocleavable precursors for organic semiconductors for use in organic field-effect transistors” (Clap Co., Ltd., priority 2017, dated 2021)
# Assay: Electrical measurement of bottom-gate top-contact organic field-effect transistor with semiconducting material deriving from the precursor compound
# Settings: OFET
# Description: A heavily doped n-type silicon wafers with a thermally-grown silicon dioxide layer (200 nm) were cleaned with isopropanol and treated with a solution of octadecyl trichlorosilane in toluene. The solution of the compound 1Aa in chloroform was spin coated at 3000 rpm for 30 sec and annealed at 90° C. for 30 seconds. A 50 nm-thick of Au layer for source and drain electrodes was deposited through a shadow mask to give top contact OFET devices. The substrate was exposed to deep ultraviolet (UV) light (energy density of 2 J/cm^2) and annealed at 90° C. The channel width (W) was 1000 μm and channel length (L) was 62 μm. A sample without light exposure was also prepared and evaluated as a comparison.
# All electrical measurements were performed in ambient air in the dark using a 4200-SCS Keithley parameter analyzer.
# In FIG. 1 the drain-source current IDS in relation to the gate-source voltage VGS (transfer curve) for field effect transistor comprising a semiconducting material deriving from compound 1Aa at a drain-source voltage VDS of −80V is shown.
# The charge-carrier mobility (μ) was extracted in the saturation regime from the slope of (IDS)^1/2 versus VGS using the equation μ=2 L/(W*Ci)*(dIDS½/dVGS)^2, wherein L is the channel length, W is the channel width, Ci is the capacitance per unit area of the dielectric layer, IDS is the drain-source current, and VGS is the gate-source voltage.
# The threshold voltage (Vth) was extracted from the intersection of the linear extrapolation of the IDS^1/2 versus VGS plot with the VGS axis.
# [1] = UV exposure 0 mJ/cm^2 (without light exposure)
smiles,measurement,setting,value
CCC(C)(C)c1ccc(-[s+]2c3cc4ccccc4cc3c3sc4cc5ccccc5cc4c32)cc1.F[B-](F)(F)F (stereo not drawn) [Compound 1Aa],I on/off,[1],Not detected
same,Vth [V] (threshold voltage),[1],Not detected
same,μ [cm^2/Vs] (charge-carrier mobility),[1],Not detected
same,I on/off,"UV exposure 2000 mJ/cm^2, annealed at 90° C.",1.0E+04
same,Vth [V] (threshold voltage),"UV exposure 2000 mJ/cm^2, annealed at 90° C., VDS −80V",−38.2 V
same,μ [cm^2/Vs] (charge-carrier mobility),"UV exposure 2000 mJ/cm^2, annealed at 90° C., saturation regime",0.003 cm^2/Vs
